Results as given in patent US6723720B2, “Pesticidal triazine-derivatives” (Novartis Animal Health US, Inc., priority 1999, dated 2004).
Some entries share one result that the patent states for a list of compounds.

What follows are molecules tested on Diabrotica balteata larvae (assay: Action against Diabrotica balteata). Details: maize seedlings, spray 100 ppm of active ingredient, larvae in the second stage, 6 days later.
Format: in vivo

Row | SMILES | reduction in the pest population
1 | Fc1cccc(F)c1-c1nncc(-c2ccc(-c3ccc(Cl)cc3)cc2)n1 [Compound 4.13] | more than 80%
2 | Fc1cccc(F)c1-c1nncc(-c2ccc(-c3ccc(C(F)(F)F)cc3)cc2)n1 [Compound 4.15] | more than 80%
3 | Fc1cccc(F)c1-c1nncc(-c2ccc(Cl)cc2Cl)n1 [Compound 4.20] | more than 80%

What follows are molecules tested on caterpillars of Spodoptera littoralis (assay: Action against Spodoptera littoralis). Details: young soybean plants, spray 100 ppm of active ingredient, caterpillars in the third stage, 3 days later.
Format: in vivo

Row | SMILES | reduction in the pest population
4 | ON=Cc1cccc(-c2ccc(-c3cnc(-c4c(F)cccc4F)nn3)cc2)c1 [Compound 1.374] | more than 80%
5 | Fc1cccc(F)c1-c1nncc(-c2ccc(-c3ccc(Cl)cc3)cc2)n1 [Compound 4.13] | more than 80%
6 | Fc1ccc(-c2ncc(-c3ccc(-c4cc(Cl)cc(Cl)c4)cc3)nn2)c(Cl)c1 [Compound 3.112] | more than 80%
7 | Fc1cccc(F)c1-c1ncc(-c2ccc(C#Cc3ccc(Cl)cc3)cc2)nn1 [Compound 1.390] | more than 80%
8 | Clc1ccc(-c2ccc(-c3cnnc(-c4ccc(Cl)cc4Cl)n3)cc2)c(Cl)c1 [Compound 4.05] | more than 80%
9 | Cc1nc(-c2c(F)cccc2F)nnc1-c1ccc(-c2ccc(C(F)(F)F)cc2)cc1 [Compound 1.50] | more than 80%
10 | Fc1cccc(F)c1-c1ncc(-c2ccc(-c3ccc(C(F)(F)F)cc3)s2)nn1 [Compound 8.22] | more than 80%
11 | Fc1cccc(F)c1-c1nncc(-c2ccc(-c3cccc(C(F)(F)F)c3)cc2)n1 [Compound 4.14] | more than 80%
12 | Fc1cccc(F)c1-c1ncc(-c2ccc(-c3ccc(OC(F)(F)F)cc3)s2)nn1 [Compound 8.23] | more than 80%
13 | Fc1ccc(-c2ncc(-c3ccc(-c4ccc(OC(F)(F)F)cc4)cc3)nn2)c(Cl)c1 [Compound 3.109] | more than 80%
14 | Fc1ccccc1C#Cc1ccc(-c2cnc(-c3c(F)cccc3F)nn2)cc1 [Compound 1.380] | more than 80%
15 | Fc1cccc(F)c1-c1ncc(-c2ccc(C=Cc3ccc(Br)cc3)cc2)nn1 [Compound 1.361] | more than 80%
16 | Fc1cccc(F)c1-c1ncc(-c2ccc(Oc3ccc(C(F)(F)F)cc3)cc2)nn1 [Compound 1.606] | more than 80%

These molecules were tested on caterpillars of Heliothis virescens (assay: Action against Heliothis virescens). Details: young soybean plants, spray 100 ppm of active ingredient, caterpillars in the first stage, 6 days later.
Format: in vivo

Row | SMILES | reduction in the pest population
17 | CSc1ccc(-c2ccc(-c3cnc(-c4c(F)cccc4F)nn3)cc2)cc1 [Compound 3.21] | more than 80%
18 | Fc1ccc(-c2ncc(-c3ccc(-c4cc(Cl)cc(Cl)c4)cc3)nn2)c(Cl)c1 [Compound 3.112] | more than 80%
19 | Fc1cccc(F)c1-c1ncc(-c2ccc(-c3cccc(C(F)(F)F)c3)cc2)nn1 [Compound 3.13] | more than 80%
20 | Fc1cccc(F)c1-c1ncc(-c2ccc(-c3ccc(OC(F)(F)F)cc3)cc2)nn1 [Compound 3.15, 3-(2,6-Difluorophenyl)-6-(4′-trifluoromethoxybiphenyl-4-yl)-[1,2,4]triazine] | more than 80%
21 | Fc1cccc(F)c1-c1ncc(-c2ccc(-c3ccc(Cl)cc3)cc2)nn1 [Compound 3.12] | more than 80%
22 | Fc1cccc(F)c1-c1ncc(-c2ccc(-c3cc(Cl)cc(Cl)c3)cc2)nn1 [Compound 3.20] | more than 80%

Each molecule was assayed on Tetranychus urticae (assay: Action against Tetranychus urticae). Details: young bean plants, mixed population, spray 100 ppm of active ingredient, 6 days at 25° C.
Format: in vivo

Row | SMILES | reduction in the pest population
23 | Fc1cccc(F)c1-c1nncc(-c2ccc(-c3ccc(Cl)cc3)cc2)n1 [Compound 4.13] | more than 80%
24 | Fc1cccc(F)c1-c1ncc(-c2ccc(-c3ccc(C(F)(F)F)cc3)cc2)nn1 [Compound 3.16] | more than 80%
25 | Fc1cccc(F)c1-c1ncc(-c2ccc(-c3cccc(C(F)(F)F)c3)cc2)nn1 [Compound 3.13] | more than 80%
26 | Fc1cccc(F)c1-c1ncc(-c2ccc(-c3ccc(Cl)cc3Cl)cc2)nn1 [Compound 3.14] | more than 80%
